This is an account of results in PMC4317502.

Amino acid sequences for entries named in this document (tags omitted). Residues count along the entry.
UniProt P08670: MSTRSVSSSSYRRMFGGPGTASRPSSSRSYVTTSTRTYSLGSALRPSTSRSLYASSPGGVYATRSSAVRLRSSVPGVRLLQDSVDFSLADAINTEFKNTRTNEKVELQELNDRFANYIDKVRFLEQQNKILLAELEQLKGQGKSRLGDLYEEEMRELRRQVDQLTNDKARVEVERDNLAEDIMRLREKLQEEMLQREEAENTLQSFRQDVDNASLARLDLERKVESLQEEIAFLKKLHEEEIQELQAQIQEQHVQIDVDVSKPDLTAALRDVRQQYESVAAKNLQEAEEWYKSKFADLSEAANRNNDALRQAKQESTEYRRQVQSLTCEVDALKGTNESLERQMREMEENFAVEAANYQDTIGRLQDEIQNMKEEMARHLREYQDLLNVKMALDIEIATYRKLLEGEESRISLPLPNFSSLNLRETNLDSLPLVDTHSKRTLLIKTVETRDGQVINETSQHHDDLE
UniProt P05556: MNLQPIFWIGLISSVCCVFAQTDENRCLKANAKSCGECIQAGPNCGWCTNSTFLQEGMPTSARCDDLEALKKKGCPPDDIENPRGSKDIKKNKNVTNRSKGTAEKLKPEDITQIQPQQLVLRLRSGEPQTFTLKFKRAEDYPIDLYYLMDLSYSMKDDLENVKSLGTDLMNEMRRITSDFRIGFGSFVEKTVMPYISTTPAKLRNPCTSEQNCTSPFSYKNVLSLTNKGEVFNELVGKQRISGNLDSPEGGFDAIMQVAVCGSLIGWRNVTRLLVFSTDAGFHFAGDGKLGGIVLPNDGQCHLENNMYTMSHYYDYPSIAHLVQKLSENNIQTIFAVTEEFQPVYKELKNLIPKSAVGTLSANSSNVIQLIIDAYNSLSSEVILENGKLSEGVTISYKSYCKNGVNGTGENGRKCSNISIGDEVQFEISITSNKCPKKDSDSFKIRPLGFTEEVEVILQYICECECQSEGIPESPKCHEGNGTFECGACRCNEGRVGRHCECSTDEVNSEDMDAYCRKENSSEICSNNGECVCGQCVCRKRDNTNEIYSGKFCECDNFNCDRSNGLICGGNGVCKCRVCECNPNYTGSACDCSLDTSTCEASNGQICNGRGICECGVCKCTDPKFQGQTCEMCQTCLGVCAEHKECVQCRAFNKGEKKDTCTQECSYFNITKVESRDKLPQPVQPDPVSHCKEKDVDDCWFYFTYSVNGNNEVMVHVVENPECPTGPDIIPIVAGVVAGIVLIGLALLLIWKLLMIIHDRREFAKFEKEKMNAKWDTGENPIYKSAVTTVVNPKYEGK
UniProt Q05397: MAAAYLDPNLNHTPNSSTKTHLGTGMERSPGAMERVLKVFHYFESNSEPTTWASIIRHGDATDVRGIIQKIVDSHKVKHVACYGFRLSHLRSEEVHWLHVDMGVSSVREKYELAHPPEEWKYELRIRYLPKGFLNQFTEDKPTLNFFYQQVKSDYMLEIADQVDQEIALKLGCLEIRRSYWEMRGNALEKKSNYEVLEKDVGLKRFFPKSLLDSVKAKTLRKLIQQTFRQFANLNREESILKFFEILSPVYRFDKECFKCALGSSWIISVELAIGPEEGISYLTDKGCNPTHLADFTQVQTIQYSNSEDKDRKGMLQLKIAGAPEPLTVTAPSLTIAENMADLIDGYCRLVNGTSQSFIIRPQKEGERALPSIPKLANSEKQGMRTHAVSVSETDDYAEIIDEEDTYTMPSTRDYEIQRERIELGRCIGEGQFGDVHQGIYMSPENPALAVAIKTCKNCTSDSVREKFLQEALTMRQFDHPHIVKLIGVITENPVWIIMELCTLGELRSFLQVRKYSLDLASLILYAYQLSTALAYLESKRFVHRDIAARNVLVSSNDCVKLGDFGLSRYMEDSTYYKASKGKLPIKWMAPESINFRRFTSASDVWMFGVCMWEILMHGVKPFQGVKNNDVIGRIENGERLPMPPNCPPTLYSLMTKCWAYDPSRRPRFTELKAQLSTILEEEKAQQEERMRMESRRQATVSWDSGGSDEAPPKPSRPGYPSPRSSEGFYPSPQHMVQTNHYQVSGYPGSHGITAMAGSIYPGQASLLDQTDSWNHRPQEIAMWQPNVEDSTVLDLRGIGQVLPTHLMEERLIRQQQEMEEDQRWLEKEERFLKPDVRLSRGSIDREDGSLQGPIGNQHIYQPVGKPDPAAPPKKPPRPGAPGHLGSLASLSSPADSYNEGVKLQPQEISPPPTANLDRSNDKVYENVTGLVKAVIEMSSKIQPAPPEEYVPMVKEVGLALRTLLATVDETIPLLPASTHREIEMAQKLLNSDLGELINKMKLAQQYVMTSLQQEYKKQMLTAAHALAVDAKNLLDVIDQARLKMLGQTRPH
UniProt O00468, residues 30-2068: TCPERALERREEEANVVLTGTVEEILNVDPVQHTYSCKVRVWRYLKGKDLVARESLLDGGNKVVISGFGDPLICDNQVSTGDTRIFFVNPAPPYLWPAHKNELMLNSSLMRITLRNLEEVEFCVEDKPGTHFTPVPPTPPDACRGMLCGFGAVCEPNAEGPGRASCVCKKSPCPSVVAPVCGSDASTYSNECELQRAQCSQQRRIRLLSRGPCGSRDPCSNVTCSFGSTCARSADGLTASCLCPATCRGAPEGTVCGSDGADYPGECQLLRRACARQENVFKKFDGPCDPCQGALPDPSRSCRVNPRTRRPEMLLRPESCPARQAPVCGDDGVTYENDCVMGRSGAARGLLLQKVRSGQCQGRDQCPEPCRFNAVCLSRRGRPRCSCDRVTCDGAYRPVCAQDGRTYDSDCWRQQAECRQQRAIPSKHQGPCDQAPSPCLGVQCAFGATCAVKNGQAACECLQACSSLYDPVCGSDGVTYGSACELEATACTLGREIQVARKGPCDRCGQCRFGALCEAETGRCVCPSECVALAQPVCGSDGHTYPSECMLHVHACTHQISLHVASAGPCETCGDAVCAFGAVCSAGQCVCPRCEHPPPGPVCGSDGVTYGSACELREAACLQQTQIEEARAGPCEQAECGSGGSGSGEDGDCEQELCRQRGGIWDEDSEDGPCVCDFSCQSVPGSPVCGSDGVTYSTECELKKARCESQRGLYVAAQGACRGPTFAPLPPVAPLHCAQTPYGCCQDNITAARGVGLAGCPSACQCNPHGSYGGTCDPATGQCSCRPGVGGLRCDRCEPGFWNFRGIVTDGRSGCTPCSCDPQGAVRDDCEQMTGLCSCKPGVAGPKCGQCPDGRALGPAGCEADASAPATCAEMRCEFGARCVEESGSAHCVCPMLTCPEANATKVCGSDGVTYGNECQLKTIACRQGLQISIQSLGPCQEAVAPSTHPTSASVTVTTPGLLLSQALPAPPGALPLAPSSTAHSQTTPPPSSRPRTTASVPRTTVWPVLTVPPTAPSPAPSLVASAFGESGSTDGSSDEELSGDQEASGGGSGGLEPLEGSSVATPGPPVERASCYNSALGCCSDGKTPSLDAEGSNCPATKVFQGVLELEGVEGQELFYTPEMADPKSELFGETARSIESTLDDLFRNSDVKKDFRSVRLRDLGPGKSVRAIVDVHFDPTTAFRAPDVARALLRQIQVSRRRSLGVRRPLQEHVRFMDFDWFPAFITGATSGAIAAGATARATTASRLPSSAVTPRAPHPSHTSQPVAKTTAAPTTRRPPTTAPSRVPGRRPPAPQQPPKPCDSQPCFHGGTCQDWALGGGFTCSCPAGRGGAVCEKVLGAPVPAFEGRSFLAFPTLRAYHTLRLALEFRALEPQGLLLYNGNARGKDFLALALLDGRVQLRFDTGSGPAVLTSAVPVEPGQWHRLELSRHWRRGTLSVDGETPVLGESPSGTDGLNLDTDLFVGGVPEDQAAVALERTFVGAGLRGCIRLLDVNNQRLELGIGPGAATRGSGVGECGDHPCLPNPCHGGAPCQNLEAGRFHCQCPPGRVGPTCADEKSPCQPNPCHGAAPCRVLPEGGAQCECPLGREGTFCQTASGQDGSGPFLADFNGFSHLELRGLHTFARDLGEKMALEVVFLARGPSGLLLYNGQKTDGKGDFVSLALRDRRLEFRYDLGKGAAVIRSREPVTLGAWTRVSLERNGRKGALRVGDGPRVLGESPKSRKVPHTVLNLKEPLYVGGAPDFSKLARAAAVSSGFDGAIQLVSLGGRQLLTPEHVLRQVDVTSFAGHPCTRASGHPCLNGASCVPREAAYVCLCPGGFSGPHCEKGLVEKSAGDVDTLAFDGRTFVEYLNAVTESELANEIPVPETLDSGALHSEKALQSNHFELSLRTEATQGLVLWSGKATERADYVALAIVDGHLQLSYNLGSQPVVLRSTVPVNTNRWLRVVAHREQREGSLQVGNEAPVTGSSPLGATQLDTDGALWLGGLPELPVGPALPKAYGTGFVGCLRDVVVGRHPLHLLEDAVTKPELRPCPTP
UniProt Q14247: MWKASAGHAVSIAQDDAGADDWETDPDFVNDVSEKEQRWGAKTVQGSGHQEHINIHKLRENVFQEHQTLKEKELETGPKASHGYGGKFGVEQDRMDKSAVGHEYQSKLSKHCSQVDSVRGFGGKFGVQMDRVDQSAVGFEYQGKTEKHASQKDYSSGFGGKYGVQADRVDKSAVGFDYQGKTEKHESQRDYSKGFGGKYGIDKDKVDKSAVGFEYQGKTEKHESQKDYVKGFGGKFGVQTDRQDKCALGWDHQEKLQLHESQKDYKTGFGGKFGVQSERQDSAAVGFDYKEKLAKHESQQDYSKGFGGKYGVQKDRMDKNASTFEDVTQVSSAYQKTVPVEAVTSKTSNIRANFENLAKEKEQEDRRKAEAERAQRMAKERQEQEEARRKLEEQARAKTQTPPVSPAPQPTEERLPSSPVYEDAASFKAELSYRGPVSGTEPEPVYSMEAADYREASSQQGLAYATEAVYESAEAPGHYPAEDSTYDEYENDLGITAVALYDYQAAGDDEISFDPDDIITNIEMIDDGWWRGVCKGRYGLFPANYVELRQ

Test [1] has as its target vimentin (human (endogenous in Hep3B, MIHA)) (UniProt P08670). The experiment in a line: co-IP; endogenous proteins in Hep3B lysate; IP with an antibody against vimentin, blot for Agrin.
For test [2] the target is unchanged. Kind of test: condition: only in MIHA cells (low endogenous Agrin); co-IP; endogenous proteins in MIHA lysate (non-tumorigenic liver cells with low endogenous Agrin); IP with an antibody against vimentin, blot for Agrin.
Test [3] has as its target integrin β1 (human (endogenous in MHCC-LM3)) (UniProt P05556). The experiment in a line: co-IP; endogenous proteins in MHCC-LM3 lysate (20 mM Tris-HCl pH 7.5, 150 mM NaCl, 1% Triton X-100); 5 ug antibody with protein A or protein G Sepharose, 4 h at 4 °C; western blot; control cells and cells depleted of Agrin, Lrp4 or MuSK, or treated with 20 ug/ml recombinant Agrin for 12 h.

Test [4] deals with activated (pY397) focal adhesion kinase (human (endogenous in MHCC-LM3)) (UniProt Q05397). Kind of test: co-IP; pFAK and cortactin in control and Agrin-depleted cells; cell line and bait not told in the text (Supplementary Fig. 9b).

These are yes or no findings as the source states them, for the method shown. In cells and extracts the contact can be indirect. Some entries that bind do so weakly or less than the wild type.

With Agrin (from UniProt O00468 30-2068), the values for the binding entry in test [1], in test [2] and in test [3] were “binds”, “no binding” and “binds”, respectively.

Take cortactin (from UniProt Q14247 1-550): the binding result in test [4] is reported as “binds”.
